Results taken from PMC6477676, “Staufen2-mediated RNA recognition and localization requires combinatorial action of multiple domains”.
Residue numbers refer to the chain shown, from its start. For at least one entry, the source does not settle the construct or the ends of the probe. For some of these results: No signal at the amounts used counts as a negative. Protein sequences can lack the tags named with them. For some of these results: Weaker means in comparison with the reference protein, sequence or condition of that experiment. For some of these results: At least one verdict rests on a figure or table, not on a statement of the authors.

Tests used:
[1] = biological target: T1, mStau2 dsRBD1-4 F40A F157A (Mus musculus) (UniProt Q8CJ67); assay: SPR; conditions: strongly decreased; SPR: HBS-EP (10 mM HEPES pH 7.4, 150 mM NaCl, 3 mM EDTA, 0.005% P20); recombinant protein; label: 5' 32P (EMSA), biotin (SPR); letters put together from the description
T1 sequence (looked up, limits assumed): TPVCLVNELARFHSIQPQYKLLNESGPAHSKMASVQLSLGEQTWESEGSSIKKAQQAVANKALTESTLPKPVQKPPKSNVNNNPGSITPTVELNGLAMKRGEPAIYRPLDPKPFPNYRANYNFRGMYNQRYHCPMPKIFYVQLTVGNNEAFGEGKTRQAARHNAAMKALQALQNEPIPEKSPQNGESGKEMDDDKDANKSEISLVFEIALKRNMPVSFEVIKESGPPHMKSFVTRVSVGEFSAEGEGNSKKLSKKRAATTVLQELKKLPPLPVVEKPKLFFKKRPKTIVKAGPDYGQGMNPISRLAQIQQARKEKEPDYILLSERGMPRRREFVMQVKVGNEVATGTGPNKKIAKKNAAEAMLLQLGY

[2] = biological target: T2, mStau2 dsRBD1 (Mus musculus) (UniProt Q8CJ67); assay: SPR; conditions: up to 1 uM; SPR: HBS-EP (10 mM HEPES pH 7.4, 150 mM NaCl, 3 mM EDTA, 0.005% P20); recombinant protein; label: 5' 32P (EMSA), biotin (SPR); letters put together from the description
T2 sequence (looked up, limits assumed): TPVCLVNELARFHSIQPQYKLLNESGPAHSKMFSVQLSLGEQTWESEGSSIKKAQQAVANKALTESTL

[3] = biological target: T3, mStau2 dsRBD1-2 K60A (Mus musculus) (UniProt Q8CJ67); assay: SPR; conditions: Hill n 1, transient; SPR: HBS-EP (10 mM HEPES pH 7.4, 150 mM NaCl, 3 mM EDTA, 0.005% P20); recombinant protein; label: 5' 32P (EMSA), biotin (SPR); letters put together from the description
T3 sequence (looked up, limits assumed): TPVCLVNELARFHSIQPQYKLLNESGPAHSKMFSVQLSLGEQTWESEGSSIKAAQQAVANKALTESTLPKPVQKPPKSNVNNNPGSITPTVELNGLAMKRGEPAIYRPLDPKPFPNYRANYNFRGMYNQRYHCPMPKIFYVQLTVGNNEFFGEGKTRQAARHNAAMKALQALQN

[4] = biological target: T4, mStau2 dsRBD1-2 H169A (Mus musculus) (UniProt Q8CJ67); assay: SPR; conditions: SPR: HBS-EP (10 mM HEPES pH 7.4, 150 mM NaCl, 3 mM EDTA, 0.005% P20), recombinant protein, label: 5' 32P (EMSA), biotin (SPR), letters put together from the description
T4 sequence (looked up, limits assumed): T3 sequence (looked up, limits assumed) with A53K, H162A

[5] = biological target: T5, mStau2 dsRBD1-2 F40A (Mus musculus) (UniProt Q8CJ67); assay: SPR; conditions: Hill n 1.2, transient; SPR: HBS-EP (10 mM HEPES pH 7.4, 150 mM NaCl, 3 mM EDTA, 0.005% P20); recombinant protein; label: 5' 32P (EMSA), biotin (SPR); letters put together from the description
T5 sequence (looked up, limits assumed): T3 sequence (looked up, limits assumed) with F33A, A53K

[6] = biological target: T6, mStau2 dsRBD1-2 K106A (Mus musculus) (UniProt Q8CJ67); assay: SPR; conditions: no fit, decreased; SPR: HBS-EP (10 mM HEPES pH 7.4, 150 mM NaCl, 3 mM EDTA, 0.005% P20); recombinant protein; label: 5' 32P (EMSA), biotin (SPR); letters put together from the description
T6 sequence (looked up, limits assumed): T3 sequence (looked up, limits assumed) with A53K, K99A

[7] = biological target: T7, mStau2 dsRBD1-2 K59A K60A (Mus musculus) (UniProt Q8CJ67); assay: SPR; conditions: Hill n 1, transient; SPR: HBS-EP (10 mM HEPES pH 7.4, 150 mM NaCl, 3 mM EDTA, 0.005% P20); recombinant protein; label: 5' 32P (EMSA), biotin (SPR); letters put together from the description
T7 sequence (looked up, limits assumed): T3 sequence (looked up, limits assumed) with K52A

[8] = biological target: T8, mStau2 dsRBD2 (Mus musculus) (UniProt Q8CJ67); assay: EMSA; conditions: binding only at >10 uM; EMSA: 5 nM RNA, protein buffer (40 mM Bis-Tris pH 7, 150 mM NaCl, 2 mM DTT presumed), 4% glycerol, 30 ug/mL yeast tRNA, RT; recombinant protein; label: 5' 32P (EMSA), biotin (SPR); letters put together from the description
T8 sequence (looked up, limits assumed): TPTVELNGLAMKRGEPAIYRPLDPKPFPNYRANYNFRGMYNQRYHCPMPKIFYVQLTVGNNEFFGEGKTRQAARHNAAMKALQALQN

[9] = biological target: T9, mStau2 linker-dsRBD2 (Mus musculus) (UniProt Q8CJ67); assay: EMSA; conditions: not improved vs dsRBD2; EMSA: 5 nM RNA, protein buffer (40 mM Bis-Tris pH 7, 150 mM NaCl, 2 mM DTT presumed), 4% glycerol, 30 ug/mL yeast tRNA, RT; recombinant protein; label: 5' 32P (EMSA), biotin (SPR); letters put together from the description
T9 sequence (looked up, limits assumed): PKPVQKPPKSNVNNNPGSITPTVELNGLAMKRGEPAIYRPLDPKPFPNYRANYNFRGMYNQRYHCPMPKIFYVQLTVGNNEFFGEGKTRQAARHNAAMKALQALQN

[10] = biological target: T10, mStau2 dsRBD1-2 F157A (Mus musculus) (UniProt Q8CJ67); assay: SPR; conditions: Hill n 1.2, strongly impaired; SPR: HBS-EP (10 mM HEPES pH 7.4, 150 mM NaCl, 3 mM EDTA, 0.005% P20); recombinant protein; label: 5' 32P (EMSA), biotin (SPR); letters put together from the description
T10 sequence (looked up, limits assumed): T3 sequence (looked up, limits assumed) with A53K, F150A

Row | Sequence | binding result [1] | binding result [2] | Kd [3] | Kd ([4]; no fit, decreased) | Kd [5] | Kd [6] | Kd [7] | binding result [8] | binding result [9] | Kd [10] | Kd ([4]; Hill n 1, strongly decreased)
1 | GGUAUAUACAUGCACAUGCAAUUUGUGUAUGUGUAUGUAUAUA [SRS2+5] | binds more weakly | no binding | > 1000 nM | > 1000 nM | > 1000 nM | > 1000 nM | > 1000 nM | binds more weakly | binds more weakly |  | 
2 | GGUAUGUGUGAAUGUGCAUGAAUAUAUAUAUAUAUGCAUAUAUAUAUUUGUAUAUGUUCACACAUG [SRS* (SRS3)] | binds more weakly |  |  |  |  |  | > 1000 nM |  |  | > 1000 nM | > 1000 nM
